Positions count from the first letter of the chain named. Results are given in words; binding and its absence hold for the method and conditions named. Binding seen in cells or lysates may run through a third protein. Some binding calls cover weakened binding; strength is not graded here. For some assays here: Sequences can lack the tags named with a protein.
T1: Siglec-E (endogenous, mouse bone marrow neutrophils) (mouse (endogenous in bone marrow neutrophils)) (UniProt Q91Y57)
T1 sequence: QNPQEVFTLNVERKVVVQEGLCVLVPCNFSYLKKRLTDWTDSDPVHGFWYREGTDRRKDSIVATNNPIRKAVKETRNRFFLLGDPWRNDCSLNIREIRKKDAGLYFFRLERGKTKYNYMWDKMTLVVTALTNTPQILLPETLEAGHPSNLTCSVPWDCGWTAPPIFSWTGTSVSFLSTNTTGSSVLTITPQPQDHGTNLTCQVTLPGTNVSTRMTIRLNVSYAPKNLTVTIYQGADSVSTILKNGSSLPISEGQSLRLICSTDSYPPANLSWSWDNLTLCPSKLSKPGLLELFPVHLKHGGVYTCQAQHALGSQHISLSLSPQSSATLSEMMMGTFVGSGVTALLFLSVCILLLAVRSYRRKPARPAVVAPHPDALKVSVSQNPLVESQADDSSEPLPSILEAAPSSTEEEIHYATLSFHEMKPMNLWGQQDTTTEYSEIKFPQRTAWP

T2: Siglec-E point mutant M-1 (R126D) (mouse) (UniProt Q91Y57)
T2 sequence: T1 sequence with R108D

T3: Siglec-E point mutant M-2 (Y432F) (mouse) (UniProt Q91Y57)
T3 sequence: T1 sequence with Y414F

T4: Siglec-E point mutant M-3 (Y455F) (mouse) (UniProt Q91Y57)
T4 sequence: T1 sequence with Y437F

T5: Siglec-E point mutant M-4 (both Y432F and Y455F) (mouse) (UniProt Q91Y57)
T5 sequence: T1 sequence with Y414F, Y437F

T6: wild-type Siglec-E (transfected in HEK293T cells) (mouse) (UniProt Q91Y57)
T6 sequence: T1 sequence

B1: gp91^phox (endogenous, mouse bone marrow neutrophils) (protein, UniProt Q61093 1-570)
chain: MGNWAVNEGLSIFVILVWLGLNVFLFINYYKVYDDGPKYNYTRKLLGSALALARAPAACLNFNCMLILLPVCRNLLSFLRGSSACCSTRIRRQLDRNLTFHKMVAWMIALHTAIHTIAHLFNVEWCVNARVGISDRYSIALSDIGDNENEEYLNFAREKIKNPEGGLYVAVTRLAGITGIVITLCLILIITSSTKTIRRSYFEVFWYTHHLFVIFFIGLAIHGAERIVRGQTAESLEEHNLDICADKIEEWGKIKECPVPKFAGNPPMTWKWIVGPMFLYLCERLVRFWRSQQKVVITKVVTHPFKTIELQMKKKGFKMEVGQYIFVKCPKVSKLEWHPFTLTSAPEEDFFSIHIRIVGDWTEGLFNACGCDKQEFQDAWKLPKIAVDGPFGTASEDVFSYEVVMLVGAGIGVTPFASILKSVWYKYCDNATSLKLKKIYFYWLCRDTHAFEWFADLLQLLETQMQERNNANFLSYNIYLTGWDESQANHFAVHHDEEKDVITGLKQKTLYGRPNWDNEFKTIASEHPNTTIGVFLCGPEALAETLSKQSISNSESGPRGVHFIFNKENF
B2: gp91^phox (transfected in HEK293T cells) (protein, UniProt Q61093 1-570)
chain: B1 chain
B3: p47^phox (endogenous, mouse bone marrow neutrophils) (protein, UniProt Q09014 1-390)
chain: MGDTFIRHIALLGFEKRFIPSQHYVYMFLVKWQDLSEKVVYRKFTEIYEFHKMLKEMFPIEAGEIHTENRVIPHLPAPRWFDGQRAAESRQGTLTEYFNGLMGLPVKISRCPHLLDFFKVRPDDLKLPTDSQAKKPETYLVPKDGKNNVADITGPIILQTYRAIADYEKSSGTEMTVATGDVVDVVEKSESGWWFCQMKTKRGWVPASYLEPLDSPDEAEDPDPNYAGEPYVTIKAYAAVEEDEMSLSEGEAIEVIHKLLDGWWVVRKGDITGYFPSMYLQKAGEEITQAQRQIRGRGAPPRRSTIRNAQSIHQRSRKRLSQDTYRRNSVRFLQQRRRPGRPGPLSTDGTKDNPSTPRVKPQPAVPPRPSSDLILHRCTESTKRKLTSAV
B4: FLAG-p47^phox (transfected in HEK293T cells) (protein, UniProt Q09014 1-390)
chain: B3 chain

Key:
[1] = molecular target: T1, Siglec-E (endogenous, mouse bone marrow neutrophils) (mouse (endogenous in bone marrow neutrophils)); assay: co-IP; endogenous proteins; neutrophils from bone marrow of WT littermates treated with E. coli 25922 (MOI of 100:1) for 5 h at 37°C in vitro or untreated; Siglec-E immunoprecipitated with Siglec-E antibodies, blotted for gp91^phox, p47^phox and Siglec-E; Siglece^-/- neutrophils alongside
[2] = molecular target: T2, Siglec-E point mutant M-1 (R126D) (mouse); assay: co-IP; lysates of HEK293T cells co-transfected with wild-type or mutated Siglec-E, gp91^phox and/or FLAG-p47^phox; immunoprecipitation with antibodies for Siglec-E or FLAG, immunoblot
[3] = molecular target: T3, Siglec-E point mutant M-2 (Y432F) (mouse); assay: as above
[4] = molecular target: T4, Siglec-E point mutant M-3 (Y455F) (mouse); assay: as above
[5] = molecular target: T5, Siglec-E point mutant M-4 (both Y432F and Y455F) (mouse); assay: as above
[6] = molecular target: T6, wild-type Siglec-E (transfected in HEK293T cells) (mouse); assay: as above
[7] = molecular target: T1, Siglec-E (endogenous, mouse bone marrow neutrophils) (mouse (endogenous in bone marrow neutrophils)); assay: co-IP; endogenous proteins; neutrophils from Tlr4^-/- bone marrow treated with E. coli 25922 (MOI of 100:1) for 5 h at 37°C in vitro; Siglec-E immunoprecipitated with Siglec-E antibodies, blotted for gp91^phox, p47^phox, TLR4 and Siglec-E

Binder	binding [1]	binding [2]	binding [3]	binding [4]	binding [5]	binding [6]	binding [7]
B1	binds						
B2		binds	binds	binds	binds	binds	
B3	binds						binds
B4		binds		binds		binds	
